The other results are listed elsewhere or left out. Most values lie at the level of the controls, where differences are scatter.
Compound: Cc1nc(Nc2ncc(C(=O)Nc3c(C)cccc3Cl)s2)cc(N2CCN(CCO)CC2)n1 [dasatinib]
Test: log2 fold change of tryptic peptide abundance, ligand vs vehicle (limited proteolysis) (log2 ratio); higher = more trypsin-susceptible (destabilized)
Conditions: ligand concentration: 5 uM; sample: K562 cleared lysate

Chains of the proteins cited; added tags and fusions are not shown. Lines headed by an entry give the natural chain unless they say otherwise; changes in a name come on top.
UniProt Q92508: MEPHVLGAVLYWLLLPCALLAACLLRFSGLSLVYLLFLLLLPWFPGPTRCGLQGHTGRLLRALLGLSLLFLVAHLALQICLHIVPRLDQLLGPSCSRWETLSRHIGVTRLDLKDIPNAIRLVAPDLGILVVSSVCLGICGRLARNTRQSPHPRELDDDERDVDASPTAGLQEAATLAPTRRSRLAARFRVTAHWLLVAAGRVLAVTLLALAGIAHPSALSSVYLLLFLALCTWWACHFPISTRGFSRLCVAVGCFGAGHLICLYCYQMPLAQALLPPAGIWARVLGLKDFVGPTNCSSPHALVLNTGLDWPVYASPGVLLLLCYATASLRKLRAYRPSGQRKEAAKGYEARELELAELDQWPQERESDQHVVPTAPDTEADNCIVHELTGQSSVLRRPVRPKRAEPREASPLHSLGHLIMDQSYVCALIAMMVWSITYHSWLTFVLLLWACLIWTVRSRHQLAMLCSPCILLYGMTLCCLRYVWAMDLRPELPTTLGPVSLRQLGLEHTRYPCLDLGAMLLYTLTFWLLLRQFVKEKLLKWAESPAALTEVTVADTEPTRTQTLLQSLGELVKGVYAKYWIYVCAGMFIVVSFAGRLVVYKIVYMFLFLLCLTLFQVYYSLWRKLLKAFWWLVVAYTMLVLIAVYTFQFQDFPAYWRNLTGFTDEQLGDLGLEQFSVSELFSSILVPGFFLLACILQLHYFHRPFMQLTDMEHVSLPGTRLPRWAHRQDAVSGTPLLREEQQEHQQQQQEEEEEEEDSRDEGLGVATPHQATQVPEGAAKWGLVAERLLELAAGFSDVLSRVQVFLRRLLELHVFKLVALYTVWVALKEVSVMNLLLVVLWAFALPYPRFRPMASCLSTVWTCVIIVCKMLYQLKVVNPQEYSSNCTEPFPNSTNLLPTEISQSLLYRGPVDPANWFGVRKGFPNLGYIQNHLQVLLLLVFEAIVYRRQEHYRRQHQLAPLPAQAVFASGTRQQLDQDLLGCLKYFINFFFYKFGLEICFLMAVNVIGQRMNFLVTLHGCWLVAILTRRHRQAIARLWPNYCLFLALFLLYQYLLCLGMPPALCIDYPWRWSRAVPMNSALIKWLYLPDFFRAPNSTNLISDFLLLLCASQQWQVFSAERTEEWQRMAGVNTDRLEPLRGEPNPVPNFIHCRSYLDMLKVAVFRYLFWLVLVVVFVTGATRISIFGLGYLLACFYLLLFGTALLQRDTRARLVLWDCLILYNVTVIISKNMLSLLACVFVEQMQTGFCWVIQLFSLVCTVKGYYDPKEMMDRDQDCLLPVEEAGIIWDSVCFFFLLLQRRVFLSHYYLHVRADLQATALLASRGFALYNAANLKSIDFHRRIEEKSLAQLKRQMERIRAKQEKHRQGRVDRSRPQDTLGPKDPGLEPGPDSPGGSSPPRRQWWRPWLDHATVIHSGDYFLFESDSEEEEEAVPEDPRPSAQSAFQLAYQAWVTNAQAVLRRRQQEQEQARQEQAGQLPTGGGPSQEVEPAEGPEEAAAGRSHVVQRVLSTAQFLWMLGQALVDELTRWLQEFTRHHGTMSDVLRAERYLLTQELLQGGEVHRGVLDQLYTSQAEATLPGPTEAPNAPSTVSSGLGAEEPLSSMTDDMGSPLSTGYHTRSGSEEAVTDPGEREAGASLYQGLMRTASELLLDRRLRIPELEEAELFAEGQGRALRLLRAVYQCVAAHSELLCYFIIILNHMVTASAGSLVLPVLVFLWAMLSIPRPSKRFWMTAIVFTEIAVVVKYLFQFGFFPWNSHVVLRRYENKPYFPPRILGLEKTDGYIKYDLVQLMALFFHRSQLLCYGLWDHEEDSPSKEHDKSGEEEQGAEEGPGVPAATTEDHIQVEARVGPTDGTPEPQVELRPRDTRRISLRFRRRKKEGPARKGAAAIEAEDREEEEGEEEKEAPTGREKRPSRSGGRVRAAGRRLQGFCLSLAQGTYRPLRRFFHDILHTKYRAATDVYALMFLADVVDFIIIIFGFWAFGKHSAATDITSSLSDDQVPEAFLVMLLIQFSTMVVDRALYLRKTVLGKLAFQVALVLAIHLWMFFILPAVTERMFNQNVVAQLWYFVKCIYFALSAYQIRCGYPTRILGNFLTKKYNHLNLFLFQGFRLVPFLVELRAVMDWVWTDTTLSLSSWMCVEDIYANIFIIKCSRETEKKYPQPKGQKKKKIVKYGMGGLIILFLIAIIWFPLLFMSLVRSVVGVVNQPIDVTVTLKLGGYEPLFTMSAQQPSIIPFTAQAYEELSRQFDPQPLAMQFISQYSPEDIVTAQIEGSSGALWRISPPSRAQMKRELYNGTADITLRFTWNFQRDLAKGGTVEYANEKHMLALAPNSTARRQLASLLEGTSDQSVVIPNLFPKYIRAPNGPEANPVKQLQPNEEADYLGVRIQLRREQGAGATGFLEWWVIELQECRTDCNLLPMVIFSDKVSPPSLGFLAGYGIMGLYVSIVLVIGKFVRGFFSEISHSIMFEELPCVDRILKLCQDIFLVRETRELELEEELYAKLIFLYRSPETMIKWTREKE
UniProt Q8WVK7: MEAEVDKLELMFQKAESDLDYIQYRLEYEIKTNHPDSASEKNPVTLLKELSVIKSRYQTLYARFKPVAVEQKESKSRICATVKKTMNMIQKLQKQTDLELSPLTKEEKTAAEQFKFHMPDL
UniProt Q92504: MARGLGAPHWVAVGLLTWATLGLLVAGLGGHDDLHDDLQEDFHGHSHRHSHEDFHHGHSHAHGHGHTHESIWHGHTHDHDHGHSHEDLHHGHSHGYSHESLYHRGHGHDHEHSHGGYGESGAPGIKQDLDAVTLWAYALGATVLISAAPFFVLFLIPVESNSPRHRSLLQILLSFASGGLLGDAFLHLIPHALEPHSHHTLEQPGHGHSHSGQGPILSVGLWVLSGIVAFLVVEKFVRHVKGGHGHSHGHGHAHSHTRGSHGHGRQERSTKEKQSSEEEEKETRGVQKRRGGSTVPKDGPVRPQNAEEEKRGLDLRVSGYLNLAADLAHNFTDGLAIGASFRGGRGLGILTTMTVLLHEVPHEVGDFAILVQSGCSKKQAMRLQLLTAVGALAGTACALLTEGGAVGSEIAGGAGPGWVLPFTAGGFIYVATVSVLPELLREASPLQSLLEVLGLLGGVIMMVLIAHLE
UniProt Q92585: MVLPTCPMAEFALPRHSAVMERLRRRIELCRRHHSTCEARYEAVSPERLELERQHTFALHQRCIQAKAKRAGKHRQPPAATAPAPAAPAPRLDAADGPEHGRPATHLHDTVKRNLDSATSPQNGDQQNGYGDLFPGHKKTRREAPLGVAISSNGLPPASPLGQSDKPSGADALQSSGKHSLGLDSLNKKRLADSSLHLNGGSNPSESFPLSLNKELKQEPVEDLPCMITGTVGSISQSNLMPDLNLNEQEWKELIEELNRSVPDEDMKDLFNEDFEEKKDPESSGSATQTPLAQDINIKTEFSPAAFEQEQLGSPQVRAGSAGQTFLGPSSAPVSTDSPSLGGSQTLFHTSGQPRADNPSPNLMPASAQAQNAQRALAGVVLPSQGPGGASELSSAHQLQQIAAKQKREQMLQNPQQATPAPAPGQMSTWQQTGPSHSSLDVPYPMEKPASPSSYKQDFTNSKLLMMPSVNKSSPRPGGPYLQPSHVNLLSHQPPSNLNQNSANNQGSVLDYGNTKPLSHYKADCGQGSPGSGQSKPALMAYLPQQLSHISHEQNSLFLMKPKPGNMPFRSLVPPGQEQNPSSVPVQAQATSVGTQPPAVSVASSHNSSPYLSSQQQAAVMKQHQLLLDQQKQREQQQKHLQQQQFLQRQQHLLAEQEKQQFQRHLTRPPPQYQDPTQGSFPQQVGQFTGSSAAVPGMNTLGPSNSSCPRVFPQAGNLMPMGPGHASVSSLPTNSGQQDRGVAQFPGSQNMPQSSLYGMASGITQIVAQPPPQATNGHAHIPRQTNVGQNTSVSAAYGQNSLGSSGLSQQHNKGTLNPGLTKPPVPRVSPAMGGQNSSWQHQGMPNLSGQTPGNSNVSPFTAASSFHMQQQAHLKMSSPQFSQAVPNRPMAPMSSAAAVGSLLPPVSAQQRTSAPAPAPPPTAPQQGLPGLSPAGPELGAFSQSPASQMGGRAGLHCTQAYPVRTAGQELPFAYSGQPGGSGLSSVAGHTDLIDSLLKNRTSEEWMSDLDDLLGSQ
UniProt Q8TAP8: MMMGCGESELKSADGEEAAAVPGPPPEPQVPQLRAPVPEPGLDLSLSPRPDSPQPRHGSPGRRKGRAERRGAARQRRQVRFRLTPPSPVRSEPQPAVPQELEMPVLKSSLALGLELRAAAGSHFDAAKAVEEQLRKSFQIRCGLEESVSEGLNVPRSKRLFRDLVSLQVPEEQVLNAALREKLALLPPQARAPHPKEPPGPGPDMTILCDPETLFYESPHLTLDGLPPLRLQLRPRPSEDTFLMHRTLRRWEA
UniProt Q8TAQ2, whole entry: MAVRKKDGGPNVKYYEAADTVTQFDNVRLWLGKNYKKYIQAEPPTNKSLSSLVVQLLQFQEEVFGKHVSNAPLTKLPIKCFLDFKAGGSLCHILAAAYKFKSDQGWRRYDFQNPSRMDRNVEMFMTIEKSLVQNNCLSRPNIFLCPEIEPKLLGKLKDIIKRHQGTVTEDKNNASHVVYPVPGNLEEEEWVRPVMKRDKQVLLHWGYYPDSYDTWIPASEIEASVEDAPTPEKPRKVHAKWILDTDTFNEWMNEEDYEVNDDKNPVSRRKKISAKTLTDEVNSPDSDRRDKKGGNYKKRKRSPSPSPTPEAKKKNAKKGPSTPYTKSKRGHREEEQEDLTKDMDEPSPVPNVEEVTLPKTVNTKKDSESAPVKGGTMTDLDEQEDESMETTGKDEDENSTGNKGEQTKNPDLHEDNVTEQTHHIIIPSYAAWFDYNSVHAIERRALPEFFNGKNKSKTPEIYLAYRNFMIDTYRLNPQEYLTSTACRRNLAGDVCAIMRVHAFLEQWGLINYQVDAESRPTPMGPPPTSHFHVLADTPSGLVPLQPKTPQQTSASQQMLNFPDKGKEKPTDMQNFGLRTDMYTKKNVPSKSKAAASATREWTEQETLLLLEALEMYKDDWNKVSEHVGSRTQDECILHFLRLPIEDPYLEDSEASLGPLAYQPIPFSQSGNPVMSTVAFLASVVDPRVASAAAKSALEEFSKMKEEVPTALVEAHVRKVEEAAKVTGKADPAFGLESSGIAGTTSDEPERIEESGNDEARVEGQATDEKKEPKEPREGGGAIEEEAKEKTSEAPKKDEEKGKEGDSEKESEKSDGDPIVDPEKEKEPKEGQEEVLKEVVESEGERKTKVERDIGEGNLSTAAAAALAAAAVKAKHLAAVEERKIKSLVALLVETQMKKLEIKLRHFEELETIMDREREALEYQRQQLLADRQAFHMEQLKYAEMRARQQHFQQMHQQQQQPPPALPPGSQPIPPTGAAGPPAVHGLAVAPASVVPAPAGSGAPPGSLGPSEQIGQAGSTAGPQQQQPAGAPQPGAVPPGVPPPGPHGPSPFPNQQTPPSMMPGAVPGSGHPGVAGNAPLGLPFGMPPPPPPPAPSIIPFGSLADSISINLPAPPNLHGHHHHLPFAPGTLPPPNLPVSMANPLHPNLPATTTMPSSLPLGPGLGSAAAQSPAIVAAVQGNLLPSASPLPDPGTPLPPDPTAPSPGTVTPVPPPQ
UniProt Q8TCA0: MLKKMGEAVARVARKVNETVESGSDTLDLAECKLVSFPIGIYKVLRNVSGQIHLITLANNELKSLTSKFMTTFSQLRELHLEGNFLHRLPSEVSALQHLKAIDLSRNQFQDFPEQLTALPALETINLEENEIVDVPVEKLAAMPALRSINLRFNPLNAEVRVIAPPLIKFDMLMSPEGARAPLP
UniProt Q8WUU5: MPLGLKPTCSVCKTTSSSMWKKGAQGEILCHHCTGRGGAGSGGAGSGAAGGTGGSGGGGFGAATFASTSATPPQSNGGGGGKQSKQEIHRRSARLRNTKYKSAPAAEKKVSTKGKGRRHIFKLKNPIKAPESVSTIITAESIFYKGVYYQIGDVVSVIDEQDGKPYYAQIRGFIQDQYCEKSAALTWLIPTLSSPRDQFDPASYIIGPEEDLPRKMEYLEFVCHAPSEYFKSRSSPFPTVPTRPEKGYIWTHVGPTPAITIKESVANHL
UniProt Q8WV37: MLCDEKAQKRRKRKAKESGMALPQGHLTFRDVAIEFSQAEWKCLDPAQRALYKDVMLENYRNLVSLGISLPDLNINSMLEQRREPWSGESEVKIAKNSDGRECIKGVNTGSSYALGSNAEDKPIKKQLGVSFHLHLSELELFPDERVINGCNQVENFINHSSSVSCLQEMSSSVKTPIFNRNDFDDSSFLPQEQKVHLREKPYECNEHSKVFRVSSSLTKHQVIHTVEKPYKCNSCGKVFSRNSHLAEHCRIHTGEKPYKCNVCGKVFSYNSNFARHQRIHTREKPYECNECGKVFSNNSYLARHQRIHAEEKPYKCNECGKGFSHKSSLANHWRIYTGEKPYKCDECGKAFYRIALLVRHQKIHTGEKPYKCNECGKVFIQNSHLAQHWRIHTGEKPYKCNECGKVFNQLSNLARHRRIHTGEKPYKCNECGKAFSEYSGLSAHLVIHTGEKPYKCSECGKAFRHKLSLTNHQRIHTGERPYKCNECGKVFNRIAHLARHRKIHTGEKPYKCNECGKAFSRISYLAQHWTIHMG

Row | Target | log2 fold change
1 | AHCTF1 (peptide sequence: KTTEVTGTGLGR, peptide start residue: 2237) (UniProt Q8WYP5) | 0.611
2 | TTN (peptide sequence: VTAINKAGPGK, peptide start residue: 20489) (UniProt Q8WZ42) | -0.423
3 | PIEZO1 (peptide sequence: QDAVSGTPLLR, peptide start residue: 728) (UniProt Q92508) | 0.117
4 | UniProt Q8WVS4 (peptide sequence: SNSFSDKGEER, peptide start residue: 245) | -0.523
5 | NUBPL (peptide sequence: GLMVMSAIEK, peptide start residue: 158) (UniProt Q8TB37) | 0.177
6 | DYNC2LI1 (peptide sequence: GVINQLAFGIDKSK, peptide start residue: 232) (UniProt Q8TCX1) | 0.356
7 | UniProt Q8WVK7 (peptide sequence: QTDLELSPLTKEEK, peptide start residue: 95) | 0.166
8 | SLC39A7 (peptide sequence: DGPVRPQNAEEEKR, peptide start residue: 298) (UniProt Q92504) | 0.37
9 | GOLGA5 (peptide sequence: TPVEASHPVENASVPR, peptide start residue: 90) (UniProt Q8TBA6) | -0.677
10 | MAML1 (peptide sequence: HLQQQQFLQR, peptide start residue: 640) (UniProt Q92585) | 0.252
11 | UniProt Q8TCG1 (peptide sequence: KLNESLKEQNEK, peptide start residue: 764) | 0.48
12 | SCFD2 (peptide sequence: HLVEAASR, peptide start residue: 362) (UniProt Q8WU76) | 0.202
13 | DEPDC1B (peptide sequence: HSIAIGEVPACR, peptide start residue: 159) (UniProt Q8WUY9) | -0.48
14 | UniProt Q8WXB1 (peptide sequence: KVALEFLK, peptide start residue: 96) | -0.187
15 | UniProt Q8WVB3 (peptide sequence: YVTGWFSPYHR, peptide start residue: 389) | -0.0204
16 | ZNF507 (peptide sequence: ERTDQNASDDDILK, peptide start residue: 596) (UniProt Q8TCN5) | -0.681
17 | DGCR8 (peptide sequence: QTSEEKPK, peptide start residue: 583) (UniProt Q8WYQ5) | 0.724
18 | PI4K2B (peptide sequence: KFEADPLPENIRK, peptide start residue: 272) (UniProt Q8TCG2) | -0.153
19 | LMO7 (peptide sequence: KEEREEIEK, peptide start residue: 760) (UniProt Q8WWI1) | 0.251

Row | Target | log2 fold change
20 | RFESD (peptide sequence: MTAVVHDR, peptide start residue: 32) (UniProt Q8TAC1) | -0.183
21 | RB1CC1 (peptide sequence: LDSLPEHEDSEKAEMK, peptide start residue: 220) (UniProt Q8TDY2) | -0.227
22 | PTPMT1 (peptide sequence: YQSLGQCVYVHCK, peptide start residue: 121) (UniProt Q8WUK0) | 0.735
23 | PPP1R35 (peptide sequence: LQLRPRPSEDTFLMHR, peptide start residue: 231) (UniProt Q8TAP8) | -0.293
24 | CT55 (peptide sequence: ATSVKPIR, peptide start residue: 166) (UniProt Q8WUE5) | 0.284
25 | FAM172A (peptide sequence: TGEPFVFNYR, peptide start residue: 78) (UniProt Q8WUF8) | -0.727
26 | UniProt Q8WTP8 (peptide sequence: GGAREAQDR, peptide start residue: 315) | 0.129
27 | SMARCC2 (peptide sequence: VEGQATDEKKEPK, peptide start residue: 761) (UniProt Q8TAQ2) | 0.0885
28 | UniProt Q8WVR3 (peptide sequence: VLVVEPVK, peptide start residue: 573) | -0.144
29 | LRRC20 (peptide sequence: LPSEVSALQHLK, peptide start residue: 89) (UniProt Q8TCA0) | -0.512
30 | GABPB2 (peptide sequence: VTGSAGTTEPHTR, peptide start residue: 428) (UniProt Q8TAK5) | -0.13
31 | TRPC4AP (peptide sequence: LHTTSHLHSDFVECQNILK, peptide start residue: 81) (UniProt Q8TEL6) | 0.465
32 | GATAD1 (peptide sequence: SSPFPTVPTRPEK, peptide start residue: 234) (UniProt Q8WUU5) | -0.208
33 | RHBDD1 (peptide sequence: ALQASLWDR, peptide start residue: 277) (UniProt Q8TEB9) | -0.458
34 | DENND1A (peptide sequence: KTPELGIVPPPPIPRPAK, peptide start residue: 706) (UniProt Q8TEH3) | -0.544
35 | SLC38A5 (peptide sequence: MNGALPSDAVGYRQER, peptide start residue: 8) (UniProt Q8WUX1) | -0.0573
36 | UniProt Q8WV37 (peptide sequence: EKPYECNEHSK, peptide start residue: 200) | 0.392
37 | SLC35B2 (peptide sequence: ASDEVPLAPR, peptide start residue: 88) (UniProt Q8TB61) | 0.265
